Reference: the supplement of paper PMC12819154, “High-throughput peptide-centric local stability assay extends protein–ligand identification to membrane proteins, tissues and bacteria” (Nature Structural & Molecular Biology, 2025)
The list shows a part of the results. Most entries show no effect beyond the scatter of the controls.

Amino acid sequences for entries named in this document (tags omitted). A change or cut given only in a name is not applied to a line headed by its entry.
UniProt O60224: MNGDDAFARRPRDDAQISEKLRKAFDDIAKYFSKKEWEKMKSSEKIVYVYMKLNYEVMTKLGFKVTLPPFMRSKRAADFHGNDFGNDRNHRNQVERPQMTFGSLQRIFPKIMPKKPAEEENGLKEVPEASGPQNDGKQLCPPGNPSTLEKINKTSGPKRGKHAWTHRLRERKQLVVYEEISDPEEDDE
UniProt O60927: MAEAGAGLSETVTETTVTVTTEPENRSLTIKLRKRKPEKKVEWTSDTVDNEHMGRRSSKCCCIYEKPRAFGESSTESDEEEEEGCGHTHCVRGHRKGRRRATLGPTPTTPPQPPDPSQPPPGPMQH
UniProt O43251: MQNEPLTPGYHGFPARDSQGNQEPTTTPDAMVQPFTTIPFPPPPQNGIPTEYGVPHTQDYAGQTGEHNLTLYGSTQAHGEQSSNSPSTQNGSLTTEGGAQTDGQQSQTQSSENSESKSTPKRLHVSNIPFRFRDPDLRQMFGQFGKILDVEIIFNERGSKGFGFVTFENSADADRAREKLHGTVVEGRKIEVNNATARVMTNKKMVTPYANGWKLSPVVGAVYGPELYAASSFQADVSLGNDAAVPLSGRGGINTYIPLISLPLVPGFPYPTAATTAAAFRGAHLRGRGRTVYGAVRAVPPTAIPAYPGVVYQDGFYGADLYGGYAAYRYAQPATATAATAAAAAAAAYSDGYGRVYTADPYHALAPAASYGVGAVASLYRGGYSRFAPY
UniProt O60907: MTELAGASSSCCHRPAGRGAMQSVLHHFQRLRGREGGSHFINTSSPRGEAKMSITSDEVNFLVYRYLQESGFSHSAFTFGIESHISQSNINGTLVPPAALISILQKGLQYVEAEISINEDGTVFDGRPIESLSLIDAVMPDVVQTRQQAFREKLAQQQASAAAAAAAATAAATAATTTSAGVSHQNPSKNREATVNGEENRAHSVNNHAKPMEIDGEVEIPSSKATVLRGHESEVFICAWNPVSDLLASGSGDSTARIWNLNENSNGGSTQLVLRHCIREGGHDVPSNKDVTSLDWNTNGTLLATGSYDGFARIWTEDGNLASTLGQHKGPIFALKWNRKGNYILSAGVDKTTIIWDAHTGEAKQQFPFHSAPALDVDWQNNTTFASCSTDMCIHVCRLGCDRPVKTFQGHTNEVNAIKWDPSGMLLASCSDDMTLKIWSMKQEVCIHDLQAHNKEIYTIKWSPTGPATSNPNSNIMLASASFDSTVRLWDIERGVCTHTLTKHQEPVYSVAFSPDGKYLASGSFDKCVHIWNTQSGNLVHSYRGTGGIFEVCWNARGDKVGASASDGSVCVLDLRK
UniProt O60506: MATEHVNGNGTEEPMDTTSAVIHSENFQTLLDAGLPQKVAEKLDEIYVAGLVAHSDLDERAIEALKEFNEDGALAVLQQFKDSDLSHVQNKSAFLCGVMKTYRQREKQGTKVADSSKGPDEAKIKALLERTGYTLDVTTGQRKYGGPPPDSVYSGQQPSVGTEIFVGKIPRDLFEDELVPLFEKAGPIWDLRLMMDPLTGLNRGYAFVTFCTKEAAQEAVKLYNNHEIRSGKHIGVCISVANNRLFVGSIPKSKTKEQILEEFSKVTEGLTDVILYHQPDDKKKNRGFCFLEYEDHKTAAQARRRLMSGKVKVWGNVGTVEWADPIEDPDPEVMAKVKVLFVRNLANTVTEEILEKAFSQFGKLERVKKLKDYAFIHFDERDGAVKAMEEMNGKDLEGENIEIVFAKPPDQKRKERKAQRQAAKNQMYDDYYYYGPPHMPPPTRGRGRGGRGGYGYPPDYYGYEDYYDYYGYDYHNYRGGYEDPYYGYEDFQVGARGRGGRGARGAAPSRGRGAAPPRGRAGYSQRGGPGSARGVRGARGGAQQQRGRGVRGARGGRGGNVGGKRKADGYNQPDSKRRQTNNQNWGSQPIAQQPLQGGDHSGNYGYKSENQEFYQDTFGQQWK
UniProt O60239: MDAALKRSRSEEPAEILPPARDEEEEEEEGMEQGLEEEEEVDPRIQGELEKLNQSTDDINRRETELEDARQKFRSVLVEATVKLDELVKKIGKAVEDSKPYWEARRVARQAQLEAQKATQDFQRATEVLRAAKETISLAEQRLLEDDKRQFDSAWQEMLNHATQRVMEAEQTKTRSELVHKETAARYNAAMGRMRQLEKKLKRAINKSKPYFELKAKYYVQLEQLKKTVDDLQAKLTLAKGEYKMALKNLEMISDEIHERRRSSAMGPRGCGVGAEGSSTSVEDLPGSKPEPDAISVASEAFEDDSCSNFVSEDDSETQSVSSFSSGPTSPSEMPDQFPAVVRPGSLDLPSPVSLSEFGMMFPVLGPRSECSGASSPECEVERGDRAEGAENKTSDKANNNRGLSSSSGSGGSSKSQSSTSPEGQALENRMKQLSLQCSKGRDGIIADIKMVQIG
UniProt O75319: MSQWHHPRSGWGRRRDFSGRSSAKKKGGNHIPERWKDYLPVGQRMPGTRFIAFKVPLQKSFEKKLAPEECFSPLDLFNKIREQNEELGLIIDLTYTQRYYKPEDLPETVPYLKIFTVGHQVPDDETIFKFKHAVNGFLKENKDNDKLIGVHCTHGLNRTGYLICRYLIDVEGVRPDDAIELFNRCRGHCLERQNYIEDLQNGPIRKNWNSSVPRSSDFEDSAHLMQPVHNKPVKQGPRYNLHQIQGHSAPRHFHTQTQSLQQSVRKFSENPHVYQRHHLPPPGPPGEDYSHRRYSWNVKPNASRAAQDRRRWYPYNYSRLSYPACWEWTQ
UniProt O43309: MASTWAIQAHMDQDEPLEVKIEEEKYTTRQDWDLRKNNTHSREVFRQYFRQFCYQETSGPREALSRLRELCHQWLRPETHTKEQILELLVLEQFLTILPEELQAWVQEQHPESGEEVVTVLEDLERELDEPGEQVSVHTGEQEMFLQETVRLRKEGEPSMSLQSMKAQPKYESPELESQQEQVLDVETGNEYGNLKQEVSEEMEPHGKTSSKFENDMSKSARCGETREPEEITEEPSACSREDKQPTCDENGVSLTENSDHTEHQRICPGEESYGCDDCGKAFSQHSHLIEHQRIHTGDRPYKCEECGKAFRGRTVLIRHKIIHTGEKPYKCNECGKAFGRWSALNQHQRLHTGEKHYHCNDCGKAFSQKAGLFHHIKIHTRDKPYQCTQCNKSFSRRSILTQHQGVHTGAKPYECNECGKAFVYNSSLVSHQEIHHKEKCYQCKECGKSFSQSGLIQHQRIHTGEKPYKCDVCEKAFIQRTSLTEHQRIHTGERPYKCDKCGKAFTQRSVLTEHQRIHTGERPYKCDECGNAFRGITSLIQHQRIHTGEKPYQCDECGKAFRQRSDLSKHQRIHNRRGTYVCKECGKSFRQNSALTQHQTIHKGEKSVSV
UniProt O60493, whole entry: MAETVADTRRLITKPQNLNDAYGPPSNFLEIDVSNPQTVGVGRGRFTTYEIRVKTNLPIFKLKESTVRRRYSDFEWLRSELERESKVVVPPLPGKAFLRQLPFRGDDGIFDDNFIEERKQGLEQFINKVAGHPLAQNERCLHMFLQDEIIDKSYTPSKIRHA
UniProt O43325: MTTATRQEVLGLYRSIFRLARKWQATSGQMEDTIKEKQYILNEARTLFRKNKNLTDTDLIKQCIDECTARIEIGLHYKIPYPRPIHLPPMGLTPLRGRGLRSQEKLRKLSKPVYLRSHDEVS
UniProt O43716: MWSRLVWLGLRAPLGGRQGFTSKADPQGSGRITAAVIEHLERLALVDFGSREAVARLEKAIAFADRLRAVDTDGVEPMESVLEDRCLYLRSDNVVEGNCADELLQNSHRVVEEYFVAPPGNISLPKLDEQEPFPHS
UniProt O60216: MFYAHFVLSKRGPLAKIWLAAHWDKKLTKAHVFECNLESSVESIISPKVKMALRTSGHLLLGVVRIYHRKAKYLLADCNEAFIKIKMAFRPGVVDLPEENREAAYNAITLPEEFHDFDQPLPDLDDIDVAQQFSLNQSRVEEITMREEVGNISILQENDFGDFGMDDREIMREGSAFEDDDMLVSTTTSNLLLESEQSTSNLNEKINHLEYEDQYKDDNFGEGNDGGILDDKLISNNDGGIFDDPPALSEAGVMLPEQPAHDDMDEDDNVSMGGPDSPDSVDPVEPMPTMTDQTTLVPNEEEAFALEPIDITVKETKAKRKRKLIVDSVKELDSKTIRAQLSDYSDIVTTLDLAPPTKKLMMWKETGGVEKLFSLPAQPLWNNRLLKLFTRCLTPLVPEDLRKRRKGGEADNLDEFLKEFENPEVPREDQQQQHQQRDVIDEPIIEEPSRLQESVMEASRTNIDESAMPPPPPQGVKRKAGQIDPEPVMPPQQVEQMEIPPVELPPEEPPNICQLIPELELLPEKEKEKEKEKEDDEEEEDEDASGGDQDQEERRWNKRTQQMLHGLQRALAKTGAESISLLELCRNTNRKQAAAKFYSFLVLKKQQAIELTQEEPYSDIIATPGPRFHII
UniProt O60568: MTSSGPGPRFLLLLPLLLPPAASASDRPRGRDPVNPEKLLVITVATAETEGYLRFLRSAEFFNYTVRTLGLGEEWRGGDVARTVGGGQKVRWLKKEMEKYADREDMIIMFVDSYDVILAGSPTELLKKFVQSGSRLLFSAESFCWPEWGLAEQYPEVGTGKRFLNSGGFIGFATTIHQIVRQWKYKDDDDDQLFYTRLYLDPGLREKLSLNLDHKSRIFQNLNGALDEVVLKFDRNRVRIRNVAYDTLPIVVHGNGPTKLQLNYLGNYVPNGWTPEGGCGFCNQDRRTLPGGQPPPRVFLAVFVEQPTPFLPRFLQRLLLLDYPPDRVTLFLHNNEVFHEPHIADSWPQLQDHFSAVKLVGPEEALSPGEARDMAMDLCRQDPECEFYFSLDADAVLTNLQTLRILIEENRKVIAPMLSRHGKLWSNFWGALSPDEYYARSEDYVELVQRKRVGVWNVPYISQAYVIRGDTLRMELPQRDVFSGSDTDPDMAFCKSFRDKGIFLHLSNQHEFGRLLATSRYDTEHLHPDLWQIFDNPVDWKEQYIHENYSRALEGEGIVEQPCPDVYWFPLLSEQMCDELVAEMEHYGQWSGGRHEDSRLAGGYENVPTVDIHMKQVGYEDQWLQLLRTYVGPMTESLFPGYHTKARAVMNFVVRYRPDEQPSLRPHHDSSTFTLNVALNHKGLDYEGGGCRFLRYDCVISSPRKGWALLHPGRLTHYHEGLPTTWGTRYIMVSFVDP
UniProt O15504: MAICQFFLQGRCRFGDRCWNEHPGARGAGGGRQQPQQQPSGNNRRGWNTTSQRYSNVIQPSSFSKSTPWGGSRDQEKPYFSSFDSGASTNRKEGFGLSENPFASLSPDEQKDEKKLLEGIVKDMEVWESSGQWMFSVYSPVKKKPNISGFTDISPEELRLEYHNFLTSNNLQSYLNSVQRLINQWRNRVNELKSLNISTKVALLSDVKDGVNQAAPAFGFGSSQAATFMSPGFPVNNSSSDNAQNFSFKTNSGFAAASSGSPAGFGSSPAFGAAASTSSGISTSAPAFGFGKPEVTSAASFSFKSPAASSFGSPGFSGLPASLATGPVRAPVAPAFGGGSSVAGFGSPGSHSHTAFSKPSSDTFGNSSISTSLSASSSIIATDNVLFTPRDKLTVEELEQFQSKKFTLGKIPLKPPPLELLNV
UniProt O43674, whole entry: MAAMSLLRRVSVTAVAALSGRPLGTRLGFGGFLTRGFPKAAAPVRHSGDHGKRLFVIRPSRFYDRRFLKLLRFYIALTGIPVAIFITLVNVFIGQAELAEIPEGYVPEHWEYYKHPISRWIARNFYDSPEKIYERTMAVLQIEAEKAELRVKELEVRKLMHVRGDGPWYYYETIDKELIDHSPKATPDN
UniProt O43264: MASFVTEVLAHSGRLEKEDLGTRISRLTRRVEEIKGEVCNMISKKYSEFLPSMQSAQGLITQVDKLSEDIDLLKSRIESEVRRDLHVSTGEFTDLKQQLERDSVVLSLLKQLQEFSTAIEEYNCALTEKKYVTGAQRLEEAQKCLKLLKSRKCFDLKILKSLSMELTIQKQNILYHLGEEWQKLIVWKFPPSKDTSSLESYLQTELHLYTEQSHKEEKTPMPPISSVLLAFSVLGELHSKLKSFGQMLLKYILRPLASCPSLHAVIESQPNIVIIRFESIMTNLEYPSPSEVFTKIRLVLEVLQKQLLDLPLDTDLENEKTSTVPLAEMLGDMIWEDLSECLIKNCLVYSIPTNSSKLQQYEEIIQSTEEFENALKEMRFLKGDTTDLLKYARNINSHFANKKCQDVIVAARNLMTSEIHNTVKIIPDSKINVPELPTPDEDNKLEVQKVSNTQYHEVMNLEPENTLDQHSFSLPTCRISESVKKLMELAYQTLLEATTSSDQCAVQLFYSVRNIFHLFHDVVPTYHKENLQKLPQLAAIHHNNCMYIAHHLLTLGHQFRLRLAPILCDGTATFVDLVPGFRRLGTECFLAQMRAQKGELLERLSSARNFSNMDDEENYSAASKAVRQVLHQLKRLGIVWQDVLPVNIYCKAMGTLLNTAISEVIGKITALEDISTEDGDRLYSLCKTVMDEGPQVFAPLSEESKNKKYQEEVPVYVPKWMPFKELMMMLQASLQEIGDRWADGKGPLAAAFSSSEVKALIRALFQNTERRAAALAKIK

The targets below were run with CN[C@@H]1C[C@H]2O[C@@](C)([C@@H]1OC)n1c3ccccc3c3c4c(c5c6ccccc6n2c5c31)C(=O)NC4 [staurosporine] (assay: log2 fold change of tryptic peptide abundance, ligand vs vehicle (limited proteolysis) (log2 ratio); higher = more trypsin-susceptible (destabilized)). Conditions: ligand concentration: 20 uM; sample: K562 cleared lysate; digestion: 4 min, 22 C (HT-PELSA RT4min, Orbitrap Astral).

Row | Target | log2 fold change
1 | ZNF292 (peptide sequence: VSVISGPQNTR, peptide start residue: 1606) (UniProt O60281) | -0.108
2 | BCAS1 (peptide sequence: EAKPEAPAAK, peptide start residue: 83) (UniProt O75363) | 0.357
3 | UniProt O60224 (peptide sequence: EVPEASGPQNDGK, peptide start residue: 125) | -0.00289
4 | UniProt O43865 (peptide sequence: EIEDAEKYSFMATVTK, peptide start residue: 21) | -0.15
5 | FLNB (peptide sequence: EAGAGGLSIAVEGPSKAEITFDDHK, peptide start residue: 2220) (UniProt O75369) | -0.569
6 | PPP1R11 (peptide sequence: ATLGPTPTTPPQPPDPSQPPPGPMQH, peptide start residue: 101) (UniProt O60927) | -0.227
7 | RBFOX2 (peptide sequence: QMFGQFGK, peptide start residue: 139) (UniProt O43251) | 0.439
8 | TBL1X (peptide sequence: AHSVNNHAKPMEIDGEVEIPSSK, peptide start residue: 202) (UniProt O60907) | -0.663
9 | MAFK (peptide sequence: GPVAPSK, peptide start residue: 124) (UniProt O60675) | -0.0867
10 | CFAP410 (peptide sequence: VLWLAENPCCGTSPHR, peptide start residue: 91) (UniProt O43822) | -0.53
11 | EXOC3 (peptide sequence: YKDEAQLYKEEHLR, peptide start residue: 465) (UniProt O60645) | 0.347
12 | ATP9B (peptide sequence: AAYYSAAGPRPGADR, peptide start residue: 23) (UniProt O43861) | -0.166
13 | SYNCRIP (peptide sequence: KLKDYAFIHFDER, peptide start residue: 369) (UniProt O60506) | -0.4
14 | ZBED4 (peptide sequence: LTDLPTVVTK, peptide start residue: 538) (UniProt O75132) | 0.143
15 | SH3BP5 (peptide sequence: QFDSAWQEMLNHATQR, peptide start residue: 150) (UniProt O60239) | -0.405
16 | DUSP11 (peptide sequence: YSWNVKPNASR, peptide start residue: 341) (UniProt O75319) | 0.25
17 | P4HA2 (peptide sequence: EYILVEEAK, peptide start residue: 46) (UniProt O15460) | -0.0883
18 | USO1 (peptide sequence: VASSTLLDDRR, peptide start residue: 30) (UniProt O60763) | -0.745
19 | UniProt O43309 (peptide sequence: AFSQHSHLIEHQR, peptide start residue: 282) | 0.103

Row | Target | log2 fold change
20 | DNAJC6 (peptide sequence: DNLKDTLK, peptide start residue: 39) (UniProt O75061) | -0.407
21 | SNX3 (peptide sequence: LKESTVRR, peptide start residue: 62) (UniProt O60493) | 1.17
22 | LYRM1 (peptide sequence: KLSKPVYLR, peptide start residue: 108) (UniProt O43325) | 0.483
23 | RAB11FIP3 (peptide sequence: ACEMVLEETRR, peptide start residue: 515) (UniProt O75154) | -0.42
24 | GATC (peptide sequence: ITAAVIEHLER, peptide start residue: 32) (UniProt O43716) | 0.474
25 | COCH (peptide sequence: SSTQEATGQAVSTAHPPTGK, peptide start residue: 128) (UniProt O43405) | -0.148
26 | RAD21 (peptide sequence: EFENPEVPREDQQQQHQQR, peptide start residue: 419) (UniProt O60216) | -0.268
27 | PLOD3 (peptide sequence: GIFLHLSNQHEFGR, peptide start residue: 501) (UniProt O60568) | -0.21
28 | UniProt O15504 (peptide sequence: DQEKPYFSSFDSGASTNRK, peptide start residue: 74) | 0.299
29 | MRPS14 (peptide sequence: KMAYEYADER, peptide start residue: 42) (UniProt O60783) | 0.395
30 | NDUFB5 (peptide sequence: LGFGGFLTR, peptide start residue: 27) (UniProt O43674) | 0.133
31 | RNF113A (peptide sequence: AVDQVCTFLFKKPGR, peptide start residue: 10) (UniProt O15541) | -0.365
32 | ZBTB43 (peptide sequence: WIHVKPER, peptide start residue: 243) (UniProt O43298) | 0.295
33 | ZW10 (peptide sequence: NLMTSEIHNTVK, peptide start residue: 413) (UniProt O43264) | 0.224
34 | CFLAR (peptide sequence: DVAIDVVPPNVR, peptide start residue: 27) (UniProt O15519) | -0.172
35 | UniProt O43296 (peptide sequence: HFSIHTGEKPYECVECGK, peptide start residue: 466) | -0.164
36 | UniProt O60381 (peptide sequence: YRVEYTQMYPGKDNR, peptide start residue: 448) | 0.232
37 | SEPTIN4 (peptide sequence: VNIVPILAK, peptide start residue: 282) (UniProt O43236) | -0.193

A second format for some results above:
Row	Target	log2 fold change
27	PLOD3 (peptide sequence: GIFLHLSNQHEFGR, peptide start residue: 501) (UniProt O60568)	-0.21
28	UniProt O15504 (peptide sequence: DQEKPYFSSFDSGASTNRK, peptide start residue: 74)	0.299
